Test: Change in bodyweight and food intake after chronic immobilization stress (CIS) and glutamine supplementation
Type: in vivo, mouse
Settings: glutamine 150 mg/kg of feed, 15 days
Protocol: In the present invention, C57BL/6 male mice (7-weeks old, KOATECH, South Korea) were kept under standard conditions (i.e., temperature of 22 to 24° C., humidity of 50 to 70%, and 12-hour light/dark cycle with lighting on 6 AM), and the animals were allowed to have free access to diets and water. The animals used for the present invention were handled according to the protocol (GNU-161128-M0068) acknowledged by Gyeongsang National University Institutional Animal Care and Use Committee (GNU IACUC), which follows the guidelines of National Institutes of Health (NIH, Bethesda, MD, USA). Control (CTL) is a group which received normal diet (common diet with nutritional balance) without any stress, CTL+Gln group is a normal diet group supplemented with glutamine (150 mg/kg of feed) and without any stress, STR is a normal diet group under stress, and STR+Gln group is a normal diet group supplemented with glutamine (150 mg/kg of feed) under stress. […] By using the above first cohort, a change in bodyweight and a food intake were measured for each animal model group (28 animals in total, i.e., 7 animals per group), in which the measurement was made, with an interval of 2 days, for 15 days of applying stress.

With `NC(=O)CC[C@H](N)C(=O)O` [glutamine] the change in bodyweight (with vs without glutamine supplementation) was “hardly affected” and the food intake (CTL, CTL+Gln, STR and STR+Gln groups) was “almost no difference”.

Source: patent US20230310356A1, “COMPOSITION FOR PREVENTING, AMELIORATING, OR TREATING BRAIN DAMAGE AND MILD COGNITIVE IMPAIRMENT COMPRISING GLUTAMINE AS EFFECTIVE COMPONENT” (INDUSTRY-ACADEMIC COOPERATION FOUNDATION GYEONGSANG …, priority 2020, published 2023)
